## Screening data, single-dose tests

Source: ChEMBL document CHEMBL3988442, “University of Dundee, Small-Polar-MMV Screening Library” (2021).

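Growth of Mycobacterium tuberculosis over 4 days (cholesterol / DPPC medium with tyloxapol); the read-out is not stated. Concentration: 50 µM. The record gives no direction; compounds that gave an IC50 in retests scored well above the rest, so higher reads as more growth inhibition. Size under these conditions: about 69,000 compounds, about 370 of them at 50% or above in at least one test.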

Each number is a percent effect as filed.
How 0% and 100% were set is not recorded. Most values in the screen are low, and negative values occur.
This is an unselected part of the compounds tested.
Two or more numbers in one place are separate tests of the same structure; such repeats can differ widely.

Compound,Percent Effect
O=C(O)C(F)(F)F.O=C(O)C(F)(F)F.[H][C@]12CCC(=O)N(CCN3CCCC3)[C@@]1([H])CCN2Cc1ccc(C)s1,-33.5
CN(Cc1ccc(F)cc1)Cc1cc2c(cc1Br)OCCO2,11.09
Cc1ccc(CN2CC3(CCNCC3)CCC2=O)c(F)c1F,-3.2
[H][C@@]12CS(=O)(=O)C[C@]1([H])N(C(=O)c1cccs1)CCN2Cc1[nH]cnc1C,-7.549
COc1ccc(OC)c(C2CCN(Cc3nc(C)n4ccccc34)C2)c1 (centres undefined),-8.674
Cc1ccc(-c2ncc(CN3CCOC(c4ccco4)C3)s2)o1 (centres undefined),9.981
Cc1noc(C(C)N2CCN(c3ncnc4sccc34)CC2)n1 (centres undefined),2.829
Cn1cc(NC(=O)C2CC(=O)N(c3n[nH]c4cccc(F)c34)C2)cn1 (centres undefined),-15.51
O=C1CSC(C(F)(F)F)c2c(O)nn(C3CCCC3)c2N1 (centres undefined),0.6535
CCCNC(=O)C[C@@H]1CCN(C(=O)c2cccnc2)C[C@@H]1CC,4.462
Cc1ccc(F)c(NCc2ccc(C(=O)N(C)C)[nH]2)c1,24.2
Cc1nc(CCNC(Cc2ccncc2)C(F)(F)F)cs1 (centres undefined),14.3
Cc1ccc2c(n1)N(CCn1cccn1)CCN(C(=O)NC(C)C)C2,-12
CCOCc1ccc(CNC2=NCCCN2)cc1.I,-2.888
COCCC(=O)N1CCCC2(CCCN2Cc2ccccc2F)C1.O=C(O)C(F)(F)F (centres undefined),-2.532
Cn1ccc(N2CCCC(NC(=O)c3ccsc3)C2=O)n1 (centres undefined),-0.5208
Cc1cc(C(=O)N2CCCC2Cn2nc(C)cc2C)on1 (centres undefined),-4.279
COCc1nn(CC2CC2)c2c1CN(C(=O)c1ccno1)CC2,25.68
Cc1noc(C2CN(S(C)(=O)=O)Cc3ccnn3C2)n1 (centres undefined),6.2
CNC(=O)Cc1nc(CNc2ccc(SC)c(F)c2)cs1,11.86
NC(=O)c1cccc(CCNCc2cnc(C3CCC3)s2)c1,-4.753
CC(C)CNC(=O)C(C)N1CCN(C2CCN(C(C)C)CC2)CC1 (centres undefined),13.29
COc1cccc(C(=O)N2CCc3c(nc(N)[nH]c3=O)C2)c1C,-13.32
O=C(O)C(c1ccc2c(c1)OCCO2)N1CCSCC1 (centres undefined),-5.236 and -16.36
Cc1cccc(CN2CCc3nnc(Cn4cccc4)n3CC2)n1.O=C(O)C(F)(F)F,-32.22
COc1ccc(OCCCN(C)C(=O)C2CCCN2C(N)=O)cc1 (centres undefined),-38.12
CCCn1ncc(C(=O)N(C)Cc2cc(C3CC3)[nH]n2)c1C,-14.76
COc1ccc(CN2CCSCC2)c(OC)c1,12.83
CCc1c(C)nn(CC(=O)NC(C)c2n[nH]c(C)n2)c1C (centres undefined),-28.39
CCc1n[nH]c(C2CN(C(=O)c3cnc(C)cn3)CCO2)n1 (centres undefined),-11.99
Cc1cc(N2CCCC(O)(CN(C)C(=O)CCN)C2)c2cnccc2n1 (centres undefined),-33.26 and -4.079
COCCCC1(CO)CCCN(CCOC)C1 (centres undefined),3.012 and -1.81
O=C(O)C(F)(F)F.[H][C@@]12CCCO[C@]1([H])[C@@H](Oc1ccccn1)CN2C(=O)c1ccoc1C,-34.19 and -23.32
Cc1cc(NCCO)nc(N2CCN(C)CC2)c1C#N,-20.75
Cc1ccc(NS(=O)(=O)CC2=NC(=O)n3cccc3C2=O)cc1,-1.39
CC(C)CC(=O)N1CCCCC(NC(=O)CCc2cccnc2)C1 (centres undefined),9.696
Cn1cc(C2=CCN(CCC(=O)NCc3ccc(Cl)cc3)CC2)cn1,-23.34
COCCCN(Cc1cnc(N2CCCC2)nc1)C1CCN(C)CC1,1.954
O=C(O)C(F)(F)F.[H][C@@]12C[C@@H](c3nc(C)no3)O[C@]1([H])CN(C(=O)C1CCN(C)CC1)C2,-15.88
O=C(O)C(F)(F)F.[H][C@@]12CN(C(=O)c3ccco3)C[C@]1([H])OCCN2c1ncccn1,2.259
FC(F)(F)CCc1ccnc(NCc2csc(N3CCOCC3)n2)n1,-8.392
Cl.[H][C@@]12CCN(Cc3cccs3)C[C@]1([H])[C@@H](c1ccsc1)CN2C(=O)C(C)(C)C,-2.275
Cc1ccc([C@H]2CN(C(=O)CC3CCC3)C[C@@H]2N)o1,1.17 and 1.812
CCn1ncnc1CN1CCc2[nH]cnc2C1CCc1ccccc1 (centres undefined),-3.143
CCn1c(-c2ccccc2)nn(CC(=O)NCCc2ccc(C)o2)c1=O,-16.07
O=C(O)C(F)(F)F.[H][C@@]12CCCO[C@]1([H])[C@@H](OC)CN2Cc1ccc(C)o1,8.221
CC(O)CC(C)(C)CNC(=O)NCc1cccc(-n2ccnc2)c1 (centres undefined),5.678
O=C(O)C(F)(F)F.[H][C@@]12COC[C@H](C(=O)N3CCCO3)[C@]1([H])CN(C1CCCC1)C2,-10.81
CN(C)c1cc(CNC(=O)c2ccc(Br)cc2F)ccn1,14.03
CC(=O)N1CCC(c2cnc(NC3CCOCC3)cn2)CC1,-9.793
Cc1ccc(S(=O)(=O)N2CCn3nc(C)nc3C2)c(Cl)c1,6.771
O=C(Cc1ccc2c(c1)OCCO2)N1CCN(c2cnccn2)CC1,-2.375
Cc1occc1C(=O)NCC(=O)N(C)CCCOc1ccc(F)cc1,-7.837
Cc1ccc(-c2ncc(C(=O)NCCS(N)(=O)=O)s2)c(C)c1,-15.38
CCCN(CCC)C(=O)CN(C)Cc1cnc(C)s1,-6.525
[H][C@@]12CCCC[C@]1(O)CCN(Cc1ccc(OC)c(C(=O)O)c1)C2,0.5593
COc1ccc(C(C)NC(=O)Nc2nnc(C)s2)c(OC)c1 (centres undefined),-20.94
Cc1ccc(CN(Cc2ccncc2)C2CCN(C)CC2)s1,-52.54
CC(C)n1ccnc1C1CCCN(c2ccncc2F)C1 (centres undefined),4.157 and -15.34
CC(C)C(NC(=O)c1ccccc1F)C(=O)N1CCC2(CC1)OCCO2 (centres undefined),-27.37
O=C(NCCn1ccnc1)C1COCC(=O)N1Cc1ccccc1 (centres undefined),-8.822
CS(=O)(=O)N1CCCC12CCCN(C(=O)c1ccnnc1)C2 (centres undefined),2.556 and -8.148
CCOC(=O)CNC(=O)c1cc(-c2ccccc2)nc2ncnn12,2.878
COCc1c(C(=O)N2CCCC(C(=O)c3nccn3C)C2)noc1C (centres undefined),-23.41
CC(=O)N1CCN(Cc2cccc3c2sc2ccccc23)CC(O)C1 (centres undefined),4.093
O=C(Cc1cccs1)N1CCC(O)(CN2CCc3ccccc3C2)C1 (centres undefined),-2.275
CN(C)C(=O)CN1CCCC2(CCN(c3ccsc3)C2=O)C1.O=C(O)C(F)(F)F (centres undefined),-26.46
O=C1OC2(CCNCC2)CN1CC(=O)N1CCCC1c1nccs1 (centres undefined),8.027
CC(=O)NCC(=O)N1Cc2ccnn2CC(COCCN(C)C)C1 (centres undefined),-4.691
CSCC(=O)NS(=O)(=O)c1ccc(C#N)c(C(F)(F)F)c1,-24.59
Cc1cc(CN2CCN(C(=O)NCc3ccoc3)CC2)no1,-3.102
COCc1nc(C(=O)N2CCCC2c2cc(C)on2)cs1 (centres undefined),-23.5
Cc1cncc(NC(=O)c2ccc(CN3CCC(CO)CC3)cc2)c1,-3.066
CCn1nc(C)cc1S(=O)(=O)N1CCC2(CC(=O)NC2=O)C1 (centres undefined),12.75

The first 4 entries again:

O=C(O)C(F)(F)F.O=C(O)C(F)(F)F.[H][C@]12CCC(=O)N(CCN3CCCC3)[C@@]1([H])CCN2Cc1ccc(C)s1 read -33.5%.
CN(Cc1ccc(F)cc1)Cc1cc2c(cc1Br)OCCO2 read 11.09%.
Cc1ccc(CN2CC3(CCNCC3)CCC2=O)c(F)c1F read -3.2%.
[H][C@@]12CS(=O)(=O)C[C@]1([H])N(C(=O)c1cccs1)CCN2Cc1[nH]cnc1C read -7.549%.